According to PubChem BioAssay AID180 (DTP/NCI, 2004):
The list does not hold the whole screen: its compounds were picked by chemical class. Other doses and runs of a compound may be missing. T/C is the treated group as % of the vehicle group. Schedule codes are those of the source, taken here to give the interval after Q, in days (D) or hours (H), and the number of doses after X. Some entries hold several experiments; the results are listed from low to high. Some T/C values carry the count of animals alive at the toxicity check; where neither a count nor a note follows, no animal had died by that day. Some doses have a count of surviving animals in place of a T/C: the source holds a T/C of zero for them, seemingly a mark for toxic or unscored doses. Survivors were counted at the toxicity check; its day is shown where the source gives one, and later deaths do not show.

System: BDF1 mice, Adenocarcinoma 755 s.c., tumor weight T/C
Experiment: NCI In Vivo Anticancer Drug Screen. Data for tumor model Adenocarcinoma 755 (subcutaneous) in B6D2F1 (BDF1) mice
Details: T/C endpoint: mean tumor weight, schedule: Q01DX011 (ip), higher T/C = larger tumour; for T/C: evaluated on day 12
Method: The antitumor activity of compounds was measured in mice bearing transplantable tumors. Survival or tumor size were measured and the results are expressed as the measurement made in the treated group (T) divided by the measurement made in the vehicle treated control group (C). The tumor model used in this assay is Adenocarcinoma 755 (subcutaneous) in B6D2F1 (BDF1) mice

Question: `O=P(Nc1ncccn1)(N1CC1)N1CC1` was tested. Which T/C (dose: 3.8 mg/kg/injection, vehicle: saline) did it give?
Answer: 53 and 54 % of control

Question: And the T/C (dose: 7.5 mg/kg/injection, vehicle: saline)?
Answer: 10 and 24 % of control

Question: And the survivor count (dose: 30.0 mg/kg/injection, vehicle: saline)?
Answer: 0 of 10

Question: Which T/C (dose: 13.0 mg/kg/injection, vehicle: methylcellulose (MC)) does the source give for `S=P1(N(CCCl)CCCl)NCCCO1` (centres undefined) here?
Answer: 82 % of control

Question: What about the T/C (dose: 26.0 mg/kg/injection, vehicle: methylcellulose (MC)) of the same compound?
Answer: 108 % of control [9 of 10 alive]

Question: What about the T/C (dose: 53.0 mg/kg/injection, vehicle: methylcellulose (MC)) of the same compound?
Answer: 99 % of control

Question: And the T/C (dose: 116.0 mg/kg/injection, vehicle: methylcellulose (MC))?
Answer: 80 % of control [9 of 10 alive]

Question: What about the survivor count (dose: 150.0 mg/kg/injection, vehicle: methylcellulose (MC)) of the same compound?
Answer: 6 of 10

Question: And the T/C (dose: 200.0 mg/kg/injection, vehicle: methylcellulose (MC))?
Answer: 88 % of control [8 of 10 alive]

Question: How did the T/C (dose: 0.88 mg/kg/injection, vehicle: saline) turn out when `O[C@H](CNCCCl)[C@H](O)CNCCCl` was run?
Answer: 65 % of control

Question: What about the T/C (dose: 1.75 mg/kg/injection, vehicle: carboxymethylcellulose (CMC)) of the same compound?
Answer: 46 % of control

Question: And the T/C (dose: 1.75 mg/kg/injection, vehicle: saline)?
Answer: 60 % of control

Question: And the T/C (dose: 3.5 mg/kg/injection, vehicle: carboxymethylcellulose (CMC))?
Answer: 59 % of control [9 of 10 alive]

Question: What about the T/C (dose: 3.5 mg/kg/injection, vehicle: saline) of the same compound?
Answer: 21 % of control

Question: What about the T/C (dose: 7.0 mg/kg/injection, vehicle: carboxymethylcellulose (CMC)) of the same compound?
Answer: 58 % of control

Question: And the T/C (dose: 7.0 mg/kg/injection, vehicle: saline)?
Answer: 8 % of control [9 of 10 alive]

Question: What about the T/C (dose: 14.0 mg/kg/injection, vehicle: carboxymethylcellulose (CMC)) of the same compound?
Answer: 103 % of control [9 of 10 alive]

Question: And the T/C (dose: 14.0 mg/kg/injection, vehicle: saline)?
Answer: 3 % of control

Question: What about the T/C (dose: 28.0 mg/kg/injection, vehicle: carboxymethylcellulose (CMC)) of the same compound?
Answer: 21 % of control [9 of 10 alive]
